Laboratory results published in patent US20200199213A1.
No constants are given. Whether binding was seen depends on the method and setting. Binding seen in cells or lysates may run through a third protein. Some entries that bind do so weakly or less than the wild type. Where a sequence is shown, tags or fusion partners need not be part of it. Values belong to the binder of their own block, whether it stands above or below them.

What was measured:
[1] = target: T1, ANGPTL3 fusion protein (human ANGPTL3, 3-Ala linker, FLAG-tag) after purification, SEQ ID NO:19 (human) (UniProt Q9Y5C1); assay: co-purification after co-expression in HEK293F: Ni-NTA capture through HIS-HSA-ANGPTL8, Superdex 200, PreScission cleavage, second Superdex 200; 4-20% TG TGX SDS-PAGE gel, Coomassie stained
T1 sequence: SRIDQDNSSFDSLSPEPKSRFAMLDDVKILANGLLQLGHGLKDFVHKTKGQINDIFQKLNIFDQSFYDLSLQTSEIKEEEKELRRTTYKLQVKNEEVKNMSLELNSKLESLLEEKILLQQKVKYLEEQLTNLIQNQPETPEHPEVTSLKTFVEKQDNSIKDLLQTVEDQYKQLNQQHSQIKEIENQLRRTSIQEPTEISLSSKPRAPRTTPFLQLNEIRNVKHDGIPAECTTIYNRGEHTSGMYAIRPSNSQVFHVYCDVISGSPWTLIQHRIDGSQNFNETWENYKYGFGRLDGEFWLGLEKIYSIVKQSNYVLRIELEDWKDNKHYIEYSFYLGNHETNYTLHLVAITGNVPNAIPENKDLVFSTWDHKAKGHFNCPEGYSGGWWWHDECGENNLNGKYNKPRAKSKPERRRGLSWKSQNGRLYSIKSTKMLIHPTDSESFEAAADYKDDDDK

[2] = target: T2, ANGPTL8 fusion protein after PreScission cleavage, SEQ ID NO:20 (human) (UniProt Q6UXH0); assay: co-expression, co-purification (Ni-NTA, size exclusion), SDS-PAGE
T2 sequence: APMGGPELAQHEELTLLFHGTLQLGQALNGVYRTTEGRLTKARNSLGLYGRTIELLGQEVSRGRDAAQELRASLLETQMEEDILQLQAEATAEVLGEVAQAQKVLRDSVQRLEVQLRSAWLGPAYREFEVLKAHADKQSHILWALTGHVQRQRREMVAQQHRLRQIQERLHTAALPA

- binding [1]: binds
B1: ANGPTL8 fusion protein after PreScission cleavage, SEQ ID NO:20 (protein)
chain: T2 sequence

- binding [2]: binds
B2: ANGPTL3 fusion protein (human ANGPTL3, 3-Ala linker, FLAG-tag) after purification, SEQ ID NO:19 (protein)
chain: T1 sequence
